Results published in the supplement of paper PMC7666118.
The other results are listed elsewhere or left out.

Protein sequences, listed by entry. Tags and fused reporters are not part of them. Lines headed by an entry give the natural chain unless they say otherwise; changes in a name come on top.
UniProt P51608, whole entry: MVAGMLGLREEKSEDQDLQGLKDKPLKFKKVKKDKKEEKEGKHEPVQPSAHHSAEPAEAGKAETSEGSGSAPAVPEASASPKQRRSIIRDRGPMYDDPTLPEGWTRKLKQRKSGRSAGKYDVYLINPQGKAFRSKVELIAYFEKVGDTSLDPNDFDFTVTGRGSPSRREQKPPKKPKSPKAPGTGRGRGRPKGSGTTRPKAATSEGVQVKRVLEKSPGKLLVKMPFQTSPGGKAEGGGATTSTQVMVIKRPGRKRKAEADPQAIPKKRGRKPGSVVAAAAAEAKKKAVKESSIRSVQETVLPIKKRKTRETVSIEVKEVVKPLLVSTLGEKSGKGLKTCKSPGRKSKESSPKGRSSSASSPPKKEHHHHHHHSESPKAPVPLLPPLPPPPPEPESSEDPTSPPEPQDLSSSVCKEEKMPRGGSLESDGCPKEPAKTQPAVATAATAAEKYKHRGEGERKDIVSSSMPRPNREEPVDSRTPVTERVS
UniProt Q9NZL9, whole entry: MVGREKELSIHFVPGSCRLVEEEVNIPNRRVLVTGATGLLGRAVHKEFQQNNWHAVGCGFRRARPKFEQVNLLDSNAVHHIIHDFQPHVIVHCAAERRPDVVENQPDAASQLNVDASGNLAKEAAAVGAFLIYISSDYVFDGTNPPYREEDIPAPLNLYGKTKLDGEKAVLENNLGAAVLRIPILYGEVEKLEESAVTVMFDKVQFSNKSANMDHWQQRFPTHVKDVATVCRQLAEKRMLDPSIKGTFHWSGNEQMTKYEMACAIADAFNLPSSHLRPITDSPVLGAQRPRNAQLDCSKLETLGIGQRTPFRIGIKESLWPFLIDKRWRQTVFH
UniProt P55081: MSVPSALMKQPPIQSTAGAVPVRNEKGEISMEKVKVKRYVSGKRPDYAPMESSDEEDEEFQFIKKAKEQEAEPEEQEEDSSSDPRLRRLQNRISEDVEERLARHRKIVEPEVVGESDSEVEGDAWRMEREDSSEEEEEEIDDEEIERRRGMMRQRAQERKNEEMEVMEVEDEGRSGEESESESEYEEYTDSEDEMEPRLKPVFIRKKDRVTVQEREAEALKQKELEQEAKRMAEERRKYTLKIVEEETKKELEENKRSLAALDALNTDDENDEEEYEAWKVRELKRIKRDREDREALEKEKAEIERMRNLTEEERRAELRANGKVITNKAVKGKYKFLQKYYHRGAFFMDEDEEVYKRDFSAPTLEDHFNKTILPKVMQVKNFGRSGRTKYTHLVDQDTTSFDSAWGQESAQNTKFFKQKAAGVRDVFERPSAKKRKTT
UniProt O14733: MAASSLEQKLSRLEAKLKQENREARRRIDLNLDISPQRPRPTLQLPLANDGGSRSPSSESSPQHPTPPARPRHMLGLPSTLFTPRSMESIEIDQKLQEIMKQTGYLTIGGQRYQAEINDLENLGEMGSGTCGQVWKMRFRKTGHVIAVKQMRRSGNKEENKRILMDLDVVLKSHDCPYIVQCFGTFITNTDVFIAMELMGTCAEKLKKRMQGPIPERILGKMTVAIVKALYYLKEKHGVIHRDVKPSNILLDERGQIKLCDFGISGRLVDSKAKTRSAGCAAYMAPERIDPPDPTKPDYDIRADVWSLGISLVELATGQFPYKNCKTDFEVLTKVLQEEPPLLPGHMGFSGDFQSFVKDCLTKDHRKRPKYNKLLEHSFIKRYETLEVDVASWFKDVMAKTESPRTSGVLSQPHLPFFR
UniProt Q9H1U9: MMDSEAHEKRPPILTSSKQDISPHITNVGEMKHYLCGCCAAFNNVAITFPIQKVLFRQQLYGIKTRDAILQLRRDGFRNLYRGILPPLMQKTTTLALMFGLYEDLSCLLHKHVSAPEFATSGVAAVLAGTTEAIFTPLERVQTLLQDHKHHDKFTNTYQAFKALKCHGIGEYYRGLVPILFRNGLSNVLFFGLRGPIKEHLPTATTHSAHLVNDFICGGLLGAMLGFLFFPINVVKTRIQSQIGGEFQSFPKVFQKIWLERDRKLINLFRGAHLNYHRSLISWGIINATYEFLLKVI
UniProt Q15648, whole entry: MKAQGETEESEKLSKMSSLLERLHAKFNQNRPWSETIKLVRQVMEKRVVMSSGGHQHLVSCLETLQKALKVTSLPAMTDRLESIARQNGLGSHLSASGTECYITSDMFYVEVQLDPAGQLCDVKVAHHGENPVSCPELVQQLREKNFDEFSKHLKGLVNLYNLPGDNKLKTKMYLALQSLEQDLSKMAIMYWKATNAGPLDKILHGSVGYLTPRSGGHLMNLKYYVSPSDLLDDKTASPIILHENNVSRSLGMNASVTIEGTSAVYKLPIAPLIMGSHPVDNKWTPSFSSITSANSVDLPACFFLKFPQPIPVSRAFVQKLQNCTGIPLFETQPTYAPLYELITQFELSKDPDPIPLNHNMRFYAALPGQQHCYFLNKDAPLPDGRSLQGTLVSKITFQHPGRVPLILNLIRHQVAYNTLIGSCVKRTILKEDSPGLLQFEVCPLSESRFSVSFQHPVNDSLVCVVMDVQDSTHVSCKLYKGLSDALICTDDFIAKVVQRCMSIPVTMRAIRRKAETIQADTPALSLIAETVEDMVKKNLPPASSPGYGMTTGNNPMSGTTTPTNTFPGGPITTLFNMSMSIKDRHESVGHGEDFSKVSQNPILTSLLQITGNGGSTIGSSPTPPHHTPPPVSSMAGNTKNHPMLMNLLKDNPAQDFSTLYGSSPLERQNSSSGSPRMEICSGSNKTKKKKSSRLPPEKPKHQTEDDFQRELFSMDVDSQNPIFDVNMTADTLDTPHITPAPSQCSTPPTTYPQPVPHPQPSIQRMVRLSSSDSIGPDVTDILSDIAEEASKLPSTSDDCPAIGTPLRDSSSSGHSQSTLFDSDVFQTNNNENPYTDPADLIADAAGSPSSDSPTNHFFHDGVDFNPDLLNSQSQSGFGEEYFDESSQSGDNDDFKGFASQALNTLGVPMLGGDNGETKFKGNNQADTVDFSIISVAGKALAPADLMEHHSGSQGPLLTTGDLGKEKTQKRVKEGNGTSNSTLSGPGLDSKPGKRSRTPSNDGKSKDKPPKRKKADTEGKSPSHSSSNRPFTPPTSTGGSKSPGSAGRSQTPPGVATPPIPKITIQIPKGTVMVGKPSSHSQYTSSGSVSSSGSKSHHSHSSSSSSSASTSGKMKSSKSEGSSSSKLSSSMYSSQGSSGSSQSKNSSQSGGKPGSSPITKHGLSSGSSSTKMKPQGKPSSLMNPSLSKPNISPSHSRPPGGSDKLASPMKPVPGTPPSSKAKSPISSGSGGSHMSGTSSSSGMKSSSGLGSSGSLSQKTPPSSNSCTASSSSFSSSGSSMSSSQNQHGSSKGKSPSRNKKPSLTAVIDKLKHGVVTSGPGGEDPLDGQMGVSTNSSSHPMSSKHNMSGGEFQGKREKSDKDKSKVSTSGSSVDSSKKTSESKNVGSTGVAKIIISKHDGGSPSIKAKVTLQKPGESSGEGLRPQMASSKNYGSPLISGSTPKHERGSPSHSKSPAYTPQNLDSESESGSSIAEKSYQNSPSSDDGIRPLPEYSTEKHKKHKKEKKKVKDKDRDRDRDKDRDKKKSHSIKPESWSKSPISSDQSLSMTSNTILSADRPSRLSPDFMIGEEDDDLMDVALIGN
UniProt P29966: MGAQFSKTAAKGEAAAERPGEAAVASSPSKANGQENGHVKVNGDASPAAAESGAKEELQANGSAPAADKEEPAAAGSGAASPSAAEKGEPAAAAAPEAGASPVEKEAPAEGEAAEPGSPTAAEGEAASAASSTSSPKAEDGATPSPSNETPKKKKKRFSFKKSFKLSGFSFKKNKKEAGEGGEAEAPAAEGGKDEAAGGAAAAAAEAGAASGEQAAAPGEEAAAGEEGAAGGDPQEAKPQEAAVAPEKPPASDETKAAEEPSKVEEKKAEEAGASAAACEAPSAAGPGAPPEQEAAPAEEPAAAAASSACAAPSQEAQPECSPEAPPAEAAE
UniProt Q15750: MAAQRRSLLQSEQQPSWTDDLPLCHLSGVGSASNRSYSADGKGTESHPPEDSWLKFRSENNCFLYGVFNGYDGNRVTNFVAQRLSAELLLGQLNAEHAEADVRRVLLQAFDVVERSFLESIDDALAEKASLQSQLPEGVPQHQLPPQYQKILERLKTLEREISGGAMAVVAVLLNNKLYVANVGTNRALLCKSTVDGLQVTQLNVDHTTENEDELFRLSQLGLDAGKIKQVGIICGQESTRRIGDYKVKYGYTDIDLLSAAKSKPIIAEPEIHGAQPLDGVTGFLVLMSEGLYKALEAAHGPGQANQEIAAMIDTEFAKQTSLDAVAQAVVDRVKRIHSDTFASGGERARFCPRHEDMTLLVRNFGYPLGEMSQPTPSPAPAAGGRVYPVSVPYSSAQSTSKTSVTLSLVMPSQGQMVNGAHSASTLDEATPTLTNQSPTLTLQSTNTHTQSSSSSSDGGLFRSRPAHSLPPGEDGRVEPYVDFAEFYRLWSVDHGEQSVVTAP
UniProt Q9UBU8, whole entry: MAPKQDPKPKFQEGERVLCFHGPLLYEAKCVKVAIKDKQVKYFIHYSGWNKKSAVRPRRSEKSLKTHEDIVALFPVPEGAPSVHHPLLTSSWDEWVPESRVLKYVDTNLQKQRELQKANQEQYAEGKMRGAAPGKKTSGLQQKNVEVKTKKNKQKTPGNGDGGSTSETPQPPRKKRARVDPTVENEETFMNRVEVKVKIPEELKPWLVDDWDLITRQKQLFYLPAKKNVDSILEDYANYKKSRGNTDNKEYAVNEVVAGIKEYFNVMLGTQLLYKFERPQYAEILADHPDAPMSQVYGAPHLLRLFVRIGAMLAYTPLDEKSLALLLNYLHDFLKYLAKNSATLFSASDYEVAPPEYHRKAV
UniProt Q6N075: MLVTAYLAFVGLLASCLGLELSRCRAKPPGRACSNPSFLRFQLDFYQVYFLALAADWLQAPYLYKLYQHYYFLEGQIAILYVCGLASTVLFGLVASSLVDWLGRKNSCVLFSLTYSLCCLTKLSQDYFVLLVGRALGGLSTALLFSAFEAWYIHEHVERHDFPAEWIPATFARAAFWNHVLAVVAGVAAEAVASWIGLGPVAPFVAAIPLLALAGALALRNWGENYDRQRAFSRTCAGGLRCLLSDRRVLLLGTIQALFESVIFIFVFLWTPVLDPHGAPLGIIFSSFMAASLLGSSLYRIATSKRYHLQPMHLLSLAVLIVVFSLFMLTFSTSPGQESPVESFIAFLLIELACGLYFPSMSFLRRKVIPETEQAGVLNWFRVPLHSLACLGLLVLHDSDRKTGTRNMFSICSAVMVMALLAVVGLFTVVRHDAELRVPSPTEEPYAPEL
UniProt Q9GZY8: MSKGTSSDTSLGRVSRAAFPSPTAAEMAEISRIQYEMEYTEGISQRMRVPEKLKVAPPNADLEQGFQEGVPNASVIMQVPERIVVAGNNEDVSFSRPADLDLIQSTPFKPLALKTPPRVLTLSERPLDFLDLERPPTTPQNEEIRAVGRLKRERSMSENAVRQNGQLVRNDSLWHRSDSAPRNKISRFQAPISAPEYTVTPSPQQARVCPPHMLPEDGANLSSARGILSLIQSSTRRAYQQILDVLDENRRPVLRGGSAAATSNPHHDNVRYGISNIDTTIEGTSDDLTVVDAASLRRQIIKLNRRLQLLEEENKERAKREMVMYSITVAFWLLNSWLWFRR
UniProt P61244, whole entry: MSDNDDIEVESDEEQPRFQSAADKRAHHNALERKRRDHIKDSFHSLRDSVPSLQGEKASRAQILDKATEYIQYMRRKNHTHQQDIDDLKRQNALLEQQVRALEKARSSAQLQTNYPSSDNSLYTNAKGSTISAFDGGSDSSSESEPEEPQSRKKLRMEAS
UniProt Q8N3J2: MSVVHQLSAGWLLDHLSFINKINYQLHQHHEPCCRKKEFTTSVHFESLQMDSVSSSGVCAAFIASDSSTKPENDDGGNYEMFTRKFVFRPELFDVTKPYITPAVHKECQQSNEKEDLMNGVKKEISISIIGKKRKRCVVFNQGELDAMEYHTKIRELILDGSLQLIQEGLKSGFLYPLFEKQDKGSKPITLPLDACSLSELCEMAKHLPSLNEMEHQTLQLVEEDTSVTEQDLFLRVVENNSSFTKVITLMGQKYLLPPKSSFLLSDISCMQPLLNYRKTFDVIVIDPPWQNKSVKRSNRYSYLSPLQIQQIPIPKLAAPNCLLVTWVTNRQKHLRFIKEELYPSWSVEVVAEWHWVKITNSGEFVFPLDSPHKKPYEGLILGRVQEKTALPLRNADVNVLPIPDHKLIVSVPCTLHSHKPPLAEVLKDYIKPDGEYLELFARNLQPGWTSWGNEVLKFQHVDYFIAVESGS

What follows are targets tested with COc1ccc(Cn2ccc3ccc(C(=O)NO)cc32)cc1 (assay: dose-dependent thermal stabilisation call (2D-TPP, DLPTP, 10% FDR) (binary (1 = stabilised)); higher = stabilised by the compound). Settings: system: HL-60 intact cells; concentration range 0.04-10 µM.

Target | dose-dependent thermal stabilisation call
MECP2 (UniProt P51608) | inactive: 0
MRPL2 (UniProt Q5T653) | inactive: 0
MRPL39 (UniProt Q9NYK5) | inactive: 0
MBOAT1 (UniProt Q6ZNC8) | inactive: 0
MAT2B (UniProt Q9NZL9) | inactive: 0
MRE11A (UniProt P49959) | inactive: 0
MFAP1 (UniProt P55081) | inactive: 0
MRPL47 (UniProt Q9HD33) | inactive: 0
MRPL50 (UniProt Q8N5N7) | active: 1
MAP2K7 (UniProt O14733) | inactive: 0
MRPS14 (UniProt O60783) | inactive: 0
MCART1 (UniProt Q9H1U9) | inactive: 0
MRPS23 (UniProt Q9Y3D9) | inactive: 0
MED1 (UniProt Q15648) | inactive: 0
MGC16169 | inactive: 0
MARCKS (UniProt P29966) | inactive: 0
MAP3K7IP1 (UniProt Q15750) | inactive: 0
MFSD6 (UniProt Q6ZSS7) | inactive: 0
MORF4L1 (UniProt Q9UBU8) | inactive: 0
MAP3K1 (UniProt Q13233) | inactive: 0
MRPS18A (UniProt Q9NVS2) | inactive: 0
MFSD5 (UniProt Q6N075) | inactive: 0
MFF (UniProt Q9GZY8) | inactive: 0
MAX (UniProt P61244) | inactive: 0
MED12 (UniProt Q93074) | inactive: 0
METTL4 (UniProt Q8N3J2) | inactive: 0
MRPL24 (UniProt Q96A35) | inactive: 0

Some values from the list:
MFSD6 (UniProt Q6ZSS7) | dose-dependent thermal stabilisation call: inactive: 0
MGC16169 | dose-dependent thermal stabilisation call: inactive: 0
